# Results from PubChem BioAssay AID1508600 (Functional Genomics Laboratory (NCATS/FGL), 2020).
# Screen size: about 53,000 sequences; about 3,700 (7%) were called active.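 How the source made its calls: active means gene knockdowns whose robust z-score for IL-1 alpha signal is at least 2 or at most -2, so actives lie on both sides; inactive means the rest.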 Some of the results follow.
# Experiment: Components of the Cytosolic LPS Sensing Pathway: Gene Identification via Genome-wide siRNA Screen;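 further: robust z of the log signal after scaling to non-targeting control siRNA wells of the plate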
# Details: RAW264.7 macrophages, IL-1a HTRF, actives lie on both sides, screened at 100 nM (by protocol), cells primed 5 h with Pam3CSK4 first
# Outline: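 IL-1a HTRF of supernatants after 24 hour LipidA transfection of Pam3CSK4-primed (5 hours) RAW264.7 cells, 48h post-siRNA transfection (100 nM). Scores: percent of plate negative-control median, then log-based robust z-score.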
row,Sequence,z-score
1,GGAUUUCGAGAAAAUCAACTT against Kctd4,inactive: -0.225
2,GCUGUGUAUGUAUUUCAUGTT against Rnf128,inactive: 0.549
3,GGAAUCAGAGUUUAAGUACTT against Uqcrq,inactive: -0.133
4,GGGCAAGAACUACAUCUGCTT against Wdr18,inactive: -0.288
5,GGGAGACAGUUCUGCUGAATT against Rpl13,inactive: 0.602
6,GGAUGAAAGUCCAACCACATT against Tulp2,inactive: -0.17
7,CCAGAACAUGUCCCUUCAATT against Rnase1,inactive: -0.242
8,GGGACAACUUAGGUGCUGGTT against Slc12a9,inactive: -0.992
9,GGUAAAAAACCAAGAACAATT against Ednrb,active: 2.17
10,GGUAGAUUAUAGCAAAAUGTT against Ik,active: -2.23
11,GCUGGAGUUAAUGGUCACATT against Olfr1306,inactive: 0.699
12,GCGGCCACGGGACGGCGGUTT against Hmx2,inactive: -0.455
13,GAGAGAUUGAGCUUGAAAGTT against Timm10b,inactive: 0.0487
14,GGGUGAUGAAGAUGGCACUTT against Olfr66,inactive: -0.3
15,GCAGUAUGAGAUCUCCUUCTT against Galnt10,inactive: 1.11
16,GGUCUUCUCCAAGAUCUUCTT against Cyp26b1,inactive: 1.03
17,CCAGCACGCAUUUAAAUAATT against Olfr628,inactive: -0.876
18,AACAAUGAGAUCGACUUUATT against Olfr1500,inactive: 0.452
19,GGGAGGUGUCUUUACGUCUTT against Neto1,inactive: -0.773
20,CGAUAGUAAAAGAAAGCUATT against Acss3,inactive: -0.493
21,GCUCUAUGGAUCCUUGGAGTT against Zfp574,inactive: 0.772
22,GCGGAGAUACUGGAGUUCGTT against Hes7,inactive: -1.33
23,GGAAUCCCAGUGCUUGAAGTT against Efna1,inactive: 0.815

row,Sequence,z-score
1,CGAGGCAAGCGAUGUCGAUTT against Zc3h10,inactive: 0.854
2,GGGAAAAUAUCAAGUGUAGTT against Tmem60,inactive: 0.567
3,CUGUGGUGCCAUUCUUACUTT against Olfr384,inactive: 0.155
4,GGAACCUAGAAGUUUUCUATT against Pebp4,inactive: 1.43
5,CCAAGUUUUCAAAACAAACTT against Aqp3,inactive: -0.0587
6,CCUAGACCAACCUAAAUUCTT against Tor4a,inactive: -1.36
7,CCACAGGAUUUGUCUCCUCTT against Olfr328,inactive: -0.559
8,GUAAUUCACAGUGGUCUGGTT against Mrps12,inactive: 0.748
9,GGAAUGAUUGUCUUGAUUCTT against Olfr952,inactive: -1.9
10,CCAUUUCUAUUAACCACAATT against Jmjd4,inactive: -0.46
11,GGACAGCUGGCUUCUAAAUTT against Lmntd1,inactive: 0.137
12,GGAAAAAAUACCAGAAACATT against Klre1,active: -2.68
13,GGGUCGUUGUCCCUUUGACTT against Sema4b,inactive: 1.29
14,CCAAUAACCCAGGAGUGCUTT against Cst7,inactive: -0.517
15,GCCUAUUCCUACUUAUAACTT against G2e3,inactive: -0.739
16,GGACUAUAUUCAGCAGCUUTT against Mrpl22,inactive: 0.431
17,CCUGAUGCUUAGCAUAACGTT against Taar2,inactive: -1.79
18,GCUAUGUCUCAACUGUUCATT against Tbpl2,inactive: -0.173
19,GGACAAAGAAGUGGAACCCTT against Cfd,inactive: -1.14
20,GGACCUUGAGAUAUCUUUUTT against D130020L05Rik,inactive: -0.361
21,GGUAGACCUAAAUAAUAUGTT against Cyp2d12,inactive: 0.149
22,GCUAUCCAGAUUGGUGUUATT against Tatdn1,inactive: 1.7
23,GGACAAUAGGAGCCUUUAATT against Vmn1r211,inactive: 0.125

row,Sequence,z-score
1,GGCCCUUGUUUAAAGCCAUTT against Asns,inactive: 0.0954
2,GCCAAAAAUAUGGGAGAUATT against Col1a1,inactive: 0.787
3,CCUUCUUCUUACUGAUAAUTT against Olfr1276,inactive: -0.471
4,GGAGCAUUUGUUACAAAUUTT against Ivns1abp,inactive: 1.49
5,GGACUUUGAAGAGGACAAUTT against Dhx38,inactive: 1.65
6,GGGAAAGACGAGUCAAAGGTT against Gbx2,inactive: -0.492
7,GGAGAAGCAAAACUUUUAATT against Snrpa1,active: -2.87
8,GCACAGUGACUACAUUCCUTT against Olfr479,inactive: -0.282
9,GGGUGGCAAGUGUACAGCUTT against Olfm3,inactive: 0.882
10,GCCGACUGGUUAAAUACAUTT against Nme3,active: 5.79
11,GGAAUUCCACCUAAAAUUGTT against Ttn,inactive: 1.32
12,GGACAGAGCAGACAUUCAUTT against Rps6kc1,inactive: -0.147
13,GAGUCCCAUUGAUAGAGGUTT against Olfr741,inactive: 0.395
14,GCUACAAUGUUUUUGGAGATT against Gc,inactive: -0.0171
15,GGUUCAUUUCAGUUGGGUUTT against Higd2a,inactive: -0.00768
16,GCCCAAAUCUCAUUCAUAGTT against Kif5a,inactive: -0.718
17,GGCUGUUCGAGCUAUCCACTT against Asap3,inactive: 0.214
18,CCUUGGUGGCCCAUUUAGCTT against 9830107B12Rik,inactive: -0.128
19,CGGUUUGGAAUGAAGAAUUTT against Rasa3,inactive: 0.808
20,GCGAAAUCAGUUGGUAAAUTT against Atf7,inactive: 0.185
21,GGCCAACUGCCCUCACAUUTT against Rbbp9,inactive: -0.445
22,GCCGAAGUAUCUGAUAGUCTT against Abi3bp,inactive: 0.97

# Some values from the list.
# Entry of GCCGAAGUAUCUGAUAGUCTT against Abi3bp under z-score: inactive: 0.97
# Entry of GGGUGGCAAGUGUACAGCUTT against Olfm3 under z-score: inactive: 0.882
# Entry of GGACUUUGAAGAGGACAAUTT against Dhx38 under z-score: inactive: 1.65
